Assay results reported in patent US7462598B2, “Antimicrobial theta defensins, analogs thereof, and methods of use” (priority 2002, dated 2008).
Some entries share one result that the patent states for a list of compounds. Some ranges recur; such a range may be that of the whole group of compounds. Bridge positions count the residues as written; N and C are the ends. Peptide text beside a SMILES is read from it.

Tests used:
S. aureus 502a = format: cell-based, Staphylococcus aureus; conditions: 5 μg/ml peptide, FIG. 6; for inhibition of staphylocidal activity in assays containing sodium chloride: NaCl 0-160 mM; for reduction of killing of S. aureus by salt: 80-160 mM salt concentrations
Protocol: The activity of each peptide (5 μg/ml) was determined in assays containing increasing concentrations of sodium chloride. Staphylocidal activities were expressed as percentages of killing obtained in the absence of additional NaCl.
To determine the effects of serum, salt, calcium chloride and magnesium chloride on microbicidal activities, peptide activities were determined in assays containing varying ionic strength, divalent cations, and serum. The effect of serum on staphylocidal activity of each peptide was determined by incubating 1×10^6 CFU/ml of S. aureus 502a with increasing peptide concentrations (0.5-4 μg/ml) in 10 mM PIPES, pH 7.4, containing 10% normal human serum for 2 h at 37° C. The effect of sodium chloride on staphylocidal activities was assessed with 5 μg/ml of each peptide in 10 mM PIPES, pH 7.4, containing varying concentrations of sodium chloride (0-160 mM). Effects of divalent cations, CaCl2, or MgCl2 (0-5.6 mM) were assessed in microbicidal assays against E. coli ML35. Bactericidal activities were determined by colony counting (see Example II), and microbicidal potencies were expressed as percent killing as follows:
[formula] where A=surviving bacteria (CFU/ml) after initial incubation with each peptide in buffer containing serum, salt, or divalent cations and Ao=bacterial CFU/ml in the “no-peptide” controls.

E. coli ML35 [1] = experiment: Cell-suspension microbicidal assay (MMC); format: cell-based, Escherichia coli; conditions: lowest concentration that reduced cell viability by 99.9%; 10 mM PIPES, 5 mM glucose, pH 7.4; 2 h 37° C.
Protocol: (§1) To test microbicidal activities, the activities of each peptide against S. aureus 502a, E. coli ML35, and C. albicans 16820 were assessed essentially as described in Example I with modifications to allow for simultaneous analysis of all twenty peptides. Briefly, two-fold serial dilutions of each peptide (in 0.01% acetic acid 0.062-8.0 μg/ml final concentrations) were mixed with 10 mM PIPES, pH 7.4, containing 5 mM glucose in sterile polystyrene 96-well plates (Corning, N.Y.). Aliquots of log-phase bacteria or yeast were added to a 2×10^6 CFU/ml final density as determined by A620. After 2 h incubation at 37° C., 15 μl of the incubation mixture was removed and serially diluted ten-fold from 1:10 to 1:10^6 in trypticase soy broth (bacteria) or Sabaraud dextrose broth (C. albicans). […] Microbicidal activity was determined as absence of growth and was correlated to CFU/ml in control experiments where activity was determined in parallel by colony counting (see Example I). […]
(§2) The microbicidal activities of each peptide against E. coli ML35, S. aureus 502a, and C. albicans 16820 were determined with cell-suspension microbicidal assays in 96-well plates (see Example II). […] Microbicidal activities (confirmed in control experiments as described in Example II) were determined as the absence of a cell pellet in the various dilutions. […]

E. coli ML35 [2] = experiment: Membrane permeabilization assay (ONPG hydrolysis); format: cell-based, Escherichia coli; conditions: rates at 1 μg/ml concentration of each peptide
Protocol: For the membrane permeabilization assay, the permeabilization of bacterial cytoplasmic membranes was determined by measuring hydrolysis of o-nitrophenyl-β-D-galactcpyranoside (ONPG) in E. coli ML35 (Sitaram et al., FEBS Lett. 303:265-268 (1992); Lehrer et al.,. J. Immunol. Methods 108:153-158 (1988)). Peptides dissolved in 5 μl of 0.01% acetic acid were two-fold serially diluted with 10 mM PIPES, pH 7.4, containing 3 mM ONPG, to final peptide concentrations of 0-8.0 μg/ml. Log-phase bacteria, prepared in PIPES buffer as described for the microbicidal assay (see Example I), were added to 1×10^6 CFU/ml final density in a final volume of 90 μl. ONPG hydrolysis was measured at 405 nm for 60 min using a SpectraMAX 190 plate reader and SOFTmaxPRO 3.1 (Molecular Devices Corp., CA). […]

[3] = system: S. aureus 502a, E. coli ML35, and C. albicans 16820; experiment: Cell-suspension microbicidal assay, statements across the test organisms (lowest MMC, overall ranges); format: cell-based; conditions: against all three test organisms
Protocol: as §1, §2

S. aureus 502-a = experiment: Microbicidal assay by colony counting (Example I); format: cell-based, Staphylococcus aureus; conditions: on a molar basis

SMILES | inhibition of staphylocidal activity in assays containing sodium chloride (S. aureus 502a) [%] | MMC, E. coli (E. coli ML35 [1]) [µg/mL] | ONPG hydrolysis (E. coli ML35 [2]) | microbicidal concentration [3] [µM] | fold more potent than indolicidin (S. aureus 502-a) | reduction of killing of S. aureus by salt (S. aureus 502a)
CC[C@H](C)[C@@H]1NC(=O)[C@@H]2CSSC[C@H](NC(=O)[C@H](CCCNC(=N)N)NC(=O)[C@@H](NC(=O)[C@H](Cc3ccccc3)NC(=O)CN)CSSC[C@@H](C(=O)N[C@H](C(=O)N[C@@H](CCCNC(=N)N)C(N)=O)[C@@H](C)O)NC1=O)C(=O)N[C@@H](CC(C)C)C(=O)N[C@H]1CSSC[C@H](NC(=O)[C@H](C(C)C)NC(=O)CNC(=O)[C@H](CCCNC(=N)N)NC(=O)[C@H](CCCNC(=N)N)NC1=O)C(=O)N[C@@H](CCCNC(=N)N)C(=O)N2 [aRTD-1-NH] (H-GFCRCLCRRGVCRCICTR-NH2; disulfide 3-16, 5-14, 7-12; N-terminus assumed) | ≤ 40 | – | – | – | – | –
CC[C@H](C)[C@@H]1NC(=O)[C@@H]2CSSC[C@H](NC(=O)[C@H](CCCNC(=N)N)NC(=O)[C@@H]3CSSC[C@H](NC1=O)C(=O)N[C@@H]([C@@H](C)O)C(=O)N[C@@H](CCCNC(=N)N)C(=O)NCC(=O)N[C@@H](Cc1ccccc1)C(=O)N3)C(=O)N[C@@H](CC(C)C)C(=O)N[C@H]1CSSC[C@H](NC(=O)[C@H](C(C)C)NC(=O)CNC(=O)[C@H](CCCNC(=N)N)NC(=O)[C@H](CCCNC(=N)N)NC1=O)C(=O)N[C@@H](CCCNC(=N)N)C(=O)N2 [RTD-1] (cyclo(GFCRCLCRRGVCRCICTR); disulfide 3-16, 5-14, 7-12) | – | 1 to 2 | 9-12 (A405/sec) · 10^−5 | 0.2 to 1.1 | 2- to 4 fold | –
CC(C)C[C@@H]1NC(=O)[C@@H]2CSSC[C@H](NC(=O)[C@H](CCCNC(=N)N)NC(=O)[C@@H]3CSSC[C@H](NC1=O)C(=O)N[C@@H](CCCNC(=N)N)C(=O)N[C@@H](CCCNC(=N)N)C(=O)NCC(=O)N[C@@H](C(C)C)C(=O)N3)C(=O)N[C@@H](CC(C)C)C(=O)N[C@H]1CSSC[C@H](NC(=O)[C@H](C(C)C)NC(=O)CNC(=O)[C@H](CCCNC(=N)N)NC(=O)[C@H](CCCNC(=N)N)NC1=O)C(=O)N[C@@H](CCCNC(=N)N)C(=O)N2 [RTD-3] (cyclo(CLCRRGVCRCLCRRGVCR); disulfide 1-10, 3-8, 12-17) | – | – | – | – | 2- to 4 fold | 10-20%
CC[C@H](C)[C@@H]1NC(=O)[C@@H]2CSSC[C@H](NC(=O)[C@H](CCCNC(=N)N)NC(=O)[C@@H](NC(=O)[C@H](Cc3ccccc3)NC(=O)CN)CSSC[C@@H](C(=O)N[C@H](C(=O)N[C@@H](CCCNC(=N)N)C(=O)O)[C@@H](C)O)NC1=O)C(=O)N[C@@H](CC(C)C)C(=O)N[C@H]1CSSC[C@H](NC(=O)[C@H](C(C)C)NC(=O)CNC(=O)[C@H](CCCNC(=N)N)NC(=O)[C@H](CCCNC(=N)N)NC1=O)C(=O)N[C@@H](CCCNC(=N)N)C(=O)N2 [aRTD-1-OH] (H-GFCRCLCRRGVCRCICTR-OH; disulfide 3-16, 5-14, 7-12; N-terminus assumed) | ≤ 30 | ≥ 3 | 2.4-5.8 (A405/sec) · 10^−5 | – | – | –
CC[C@H](C)[C@@H]1NC(=O)[C@@H]2CSSC[C@H](NC(=O)[C@H](CCCNC(=N)N)NC(=O)[C@@H]3CSSC[C@H](NC1=O)C(=O)N[C@@H]([C@@H](C)O)C(=O)N[C@@H](CCCNC(=N)N)C(=O)NCC(=O)N[C@@H](Cc1ccccc1)C(=O)N3)C(=O)N[C@@H]([C@@H](C)CC)C(=O)N[C@H]1CSSC[C@H](NC(=O)[C@H](Cc3ccccc3)NC(=O)CNC(=O)[C@H](CCCNC(=N)N)NC(=O)[C@H]([C@@H](C)O)NC1=O)C(=O)N[C@@H](CCCNC(=N)N)C(=O)N2 [RTD-2] (cyclo(CICTRGFCRCICTRGFCR); disulfide 1-10, 3-8, 12-17) | – | – | – | – | 2- to 4 fold | 10-20%
